Experimental data as given in PubChem BioAssay AID200 (DTP/NCI, 2004).
The list does not hold the whole screen: it is rich in T/C values a quarter to a half above the control, in often repeated tests (any T/C) and in doses without a T/C. Further doses and runs are listed elsewhere. T/C is the treated group as % of the vehicle group. Some doses have a count of surviving animals in place of a T/C: the source holds a T/C of zero for them, seemingly a mark for toxic or unscored doses. Some doses without a T/C left all or most animals alive at the check, yet need not have been tolerated: the source hardly ever lists a survival T/C far under the control, and the zero likely stands for such cases as well. Counts of survivors are from the toxicity check (mostly the fifth day) where no day follows; animals may have died later. Schedules are NCI's codes, read here as Q, the interval in days (D) or hours (H), X, the number of doses. Some entries hold several experiments; the values are given in rising order. Where survival is the endpoint, the PubChem record calls one and a half times the control and up active, and a quarter to a half above the control has no call in these data; cut-offs in other NCI protocols can differ. Where a SMILES comes first, the peptide text is derived from it.

Test system: B6C3F1 mice, B16 melanoma ip, median survival T/C
Assay: NCI In Vivo Anticancer Drug Screen. Data for tumor model B16 Melanoma (intraperitoneal) in B6C3F1 mice
Details: T/C endpoint: median survival time, schedule: Q01DX009 (ip), higher T/C = longer survival
Method in brief: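 Antitumor effect was judged in mice with transplanted tumors by dividing the treated group's survival measure by that of vehicle controls.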

[1] = dose: 400.0 mg/kg/injection, vehicle: saline with Tween-80
[2] = dose: 50.0 mg/kg/injection, vehicle: saline with Tween-80
[3] = dose: 400.0 mg/kg/injection, vehicle: Klucel (hydroxypropylcellulose) (HPC)

## CCCCOc1ccc(C(=O)SCCCN=C(N)N)cc1
dose: 12.5 mg/kg/injection, vehicle: suspension in saline
  survivor count: 10 of 10
dose: 50.0 mg/kg/injection, vehicle: suspension in saline
  survivor count: 10 of 10

## CCC(=O)Sc1ccccc1C(=O)Nc1ccc(Cl)cc1
[1]
  survivor count: 9 of 9

## [Cl][Sn]([c]1ccccc1)[c]1ccccc1
dose: 12.5 mg/kg/injection, vehicle: saline
  survivor count: 4 of 10
dose: 25.0 mg/kg/injection, vehicle: saline
  survivor count: 1 of 10
dose: 50.0 mg/kg/injection, vehicle: saline
  survivor count: 0 of 10 and 4 of 10
dose: 100.0 mg/kg/injection, vehicle: saline
  survivor count: 0 of 10

## COc1ccc(C(C)c2cc3c(cc2OC)OCO3)cc1 (stereo not given)
[1]
  survivor count: 6 of 10

## COc1cc(O)c2c(O)c3c(c4c2c1[C@]1(C4)C(C)=CCCC1(C)C)[C@H](O)[C@@]1(O)CC(=O)C(C(N)=O)=C(O)[C@@]1(O)C3=O
dose: 12.5 mg/kg/injection, vehicle: saline with Tween-80
  T/C: 126 % of control
dose: 25.0 mg/kg/injection, vehicle: saline with Tween-80
  survivor count: 10 of 10
[2]
  survivor count: 1 of 10

## CCN(CC)CCn1[nH]c2c3ccc(=O)cc3sc3c(NCCN)ccc1c32
dose: 3.12 mg/kg/injection, vehicle: water
  T/C: 138 % of control
dose: 6.25 mg/kg/injection, vehicle: water
  T/C: 139 % of control
dose: 20.83 mg/kg/injection, vehicle: water
  survivor count: 10 of 10
dose: 25.0 mg/kg/injection, vehicle: water
  survivor count: 9 of 10
dose: 34.72 mg/kg/injection, vehicle: water
  survivor count: 6 of 10

## CCCC(NC(=O)CNC(=O)OCc1ccccc1)C(=O)O (stereo not given) (HELM PEPTIDE1{[O=C(OCc1ccccc1)[*:2]].G.[CCCC(N[*:1])C(=O)O]}$$$$V2.0)
[3]
  survivor count: 0 of 10

## c1ccc2c(NCCCCCCNc3c4ccccc4nc4ccccc34)c3ccccc3nc2c1
dose: 1.25 mg/kg/injection, vehicle: Klucel (hydroxypropylcellulose) (HPC)
  T/C: 129 % of control
dose: 1.58 mg/kg/injection, vehicle: lactic acid
  T/C: 149 % of control
dose: 2.37 mg/kg/injection, vehicle: lactic acid
  T/C: 148 % of control
dose: 3.56 mg/kg/injection, vehicle: Klucel (hydroxypropylcellulose) (HPC)
  T/C: 149 % of control
dose: 3.56 mg/kg/injection, vehicle: lactic acid
  T/C: 149 % of control
dose: 5.0 mg/kg/injection, vehicle: water
  T/C: 125 % of control
dose: 5.33 mg/kg/injection, vehicle: lactic acid
  T/C: 129 % of control
dose: 8.0 mg/kg/injection, vehicle: lactic acid
  survivor count: 7 of 10
dose: 10.0 mg/kg/injection, vehicle: water
  survivor count: 4 of 10
dose: 12.0 mg/kg/injection, vehicle: lactic acid
  survivor count: 0 of 10
dose: 18.0 mg/kg/injection, vehicle: Klucel (hydroxypropylcellulose) (HPC)
  survivor count: 10 of 10
dose: 18.0 mg/kg/injection, vehicle: lactic acid
  survivor count: 3 of 10

## C=Cc1cnc([N+](=O)[O-])n1C
[3]
  survivor count: 0 of 10

## O=c1[nH]cnc2c1nnn2C1OC(CO)C(O)C1O (stereo not given)
dose: 200.0 mg/kg/injection, vehicle: saline
  survivor count: 10 of 10
dose: 400.0 mg/kg/injection, vehicle: saline
  survivor count: 10 of 10

## OC1COC(c2ccccc2)OC1C1OC(c2ccccc2)OC2COC(c3ccccc3)OC21 (stereo not given)
[2]
  survivor count: 10 of 10
dose: 100.0 mg/kg/injection, vehicle: saline with Tween-80
  survivor count: 10 of 10
dose: 200.0 mg/kg/injection, vehicle: saline with Tween-80
  survivor count: 10 of 10
